About 3,700 (7%) of roughly 53,000 sequences were called active.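 The calls were made as follows: active = gene knockdowns whose robust z-score for IL-1 alpha signal is at least 2 or at most -2, so actives lie on both sides; inactive = the rest.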 The list shows a part of the results.
Test: Components of the Cytosolic LPS Sensing Pathway: Gene Identification via Genome-wide siRNA Screen;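 also: robust z of the log signal after scaling to non-targeting control siRNA wells of the plate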
Conditions: RAW264.7 macrophages, IL-1a HTRF, actives lie on both sides, screened at 100 nM (by protocol), cells primed 5 h with Pam3CSK4 first
Outline: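 Using IL-1a HTRF as read-out, the screen measured release from RAW264.7 cells after 48h siRNA knockdown (100 nM), 5 h Pam3CSK4 priming and 24 h cytosolic LipidA. Values were expressed relative to negative-control wells as robust z-scores.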

| Sequence | z-score |
| --- | --- |
| GGCUUGAUCUUCGUAGUGGTT against Arf1 | inactive: 0.132 |
| GGAGAAACUCAACUCUCUCTT against Csrnp3 | inactive: -0.255 |
| CCACCAACCGUUAGGUUUUTT against Ube2b | inactive: 1.98 |
| GGACGGUAACAACUACAAUTT against Polg | inactive: 1.63 |
| CCUAAGCUGACUCAUAUUGTT against 1700018F24Rik | inactive: -0.663 |
| GCAACCAUUCUGGUAUUACTT against Zfp108 | inactive: 0.904 |
| GGACAUGAAUGAAACCUUCTT against Cables1 | inactive: -1.1 |
| GGAUGAGGAAAAUGUGUCUTT against Kndc1 | inactive: -1.22 |
| CCAAUAAGAGUGCUGAUGGTT against Mrtfa | inactive: -0.241 |
| GGAGAUCUUGAUUAGCGAATT against Fam71e2 | inactive: 1.9 |
| GGAAAGAUGAGACAGCCUCTT against Impg1 | inactive: -0.0116 |
| GGGACAAGUUGAAUAAAAUTT against Lrrc18 | inactive: 0.0044 |
| GCUGUUAUGCAACAUAUAGTT against Mef2c | inactive: -0.455 |
| GCGAGUGCUUGGCUAUUAUTT against Ckap2 | inactive: -0.234 |
| GGGAAGAAAUAUGUUAGAUTT against Pip4p2 | inactive: 0.92 |
| GGUCAUCAGUCCUGACACUTT against Cyb5r3 | inactive: -0.594 |
| CCAGAUGGAAAGCGAAAAATT against Thra | inactive: -0.27 |
| GCAAGUUUGGAGACAAUGATT against Toporsl | inactive: 0.561 |
| GGAACUGAUAAACUACUCUTT against Olfr1126 | active: -2.08 |
| GGUGUUUGUUACCAGUAGCTT against Arhgap23 | inactive: -0.791 |
| GGUGGUAAUUUUUCUCAGATT against Agxt2 | inactive: -1.74 |
| GCUCUAUGAAGUGAUGACGTT against Amph | inactive: -1.69 |
| GUCUAGAAUAAUUGGAGGATT against Klk1b27 | inactive: 1.44 |

Another view of part of the listing above:
Sequence | z-score
GGACGGUAACAACUACAAUTT against Polg | inactive: 1.63
GCAACCAUUCUGGUAUUACTT against Zfp108 | inactive: 0.904

Part of the list above, as labelled records.
GGAAAGAUGAGACAGCCUCTT against Impg1
  z-score: inactive: -0.0116
GGGACAAGUUGAAUAAAAUTT against Lrrc18
  z-score: inactive: 0.0044

Next results follow:

| Sequence | z-score |
| --- | --- |
| CCAAAGAAGGUGAGAUUUGTT against Clstn1 | inactive: -0.161 |
| GGUGUGUGGAUCCUCAUGUTT against Chrdl2 | inactive: 0.565 |
| GGAGACUGACAAGAAAAUUTT against Gm16367 | inactive: -0.967 |
| GGGUGGAAAAUUUCAGUUUTT against Ube2f | inactive: -0.957 |
| GGUAGACAGUGAGUCGGAATT against Trim44 | inactive: -0.118 |
| CGAAAGGCCCAUGAAUAAATT against Ascc2 | inactive: -1.26 |
| GGCUAUACAGUCUCUGAAATT against Smu1 | inactive: 0.178 |
| GCAUUAGAUAGCUGAUGGCTT against 9330132A10Rik | inactive: -0.466 |
| GCAGAUCCGAAUCAAUGAGTT against Twf2 | inactive: 0.504 |
| GGCCACAGGUGGAAACUAUTT against Tubb4a | inactive: 1.19 |
| GGCCAGAUGACCUUGUCAUTT against Sult1e1 | inactive: -1.23 |
| CCACAAGUCAUCUUAGUGATT against Zfp236 | inactive: -0.0754 |
| GGACCUUGGGUCUACAGAATT against Hoxd1 | inactive: 0.0461 |
| GCUAGAUGCCGAAAAUCAATT against Obscn | inactive: 0.607 |
| GGAGGGAAAACCACAAGACTT against Dppa4 | inactive: 0.514 |
| GGGAAAAAUCAACUUCACUTT against Vmn1r87 | inactive: 1.51 |
| GGAAACAUCGAAUCUGAUUTT against Slc11a2 | inactive: -1.06 |
| CCCAGUUAGAAUUGUUAUCTT against Snx16 | inactive: 1.29 |
| GGAAAUCUGUUCUUGAAGGTT against Pcdhb4 | inactive: -0.0811 |
| GGAGGUAUUCUAAAAUCACTT against Helb | inactive: 0.616 |
| GGUGCUAGAAACAUCCUACTT against Fbf1 | inactive: -0.515 |
| GGGCAGGACUGAAUCAAGUTT against Dkk2 | inactive: 0.0431 |
| GGACUGGCAAUUUUAUAGATT against Pygb | inactive: 0.21 |

| Sequence | z-score |
| --- | --- |
| GGCUUGUUCAAGAGAAGAUTT against Slc25a41 | inactive: 0.177 |
| GCAUAAAGUUUACGUCCAATT against Irx4 | inactive: -0.294 |
| GCAAAGAAGUGUAUGUGUUTT against Olfr273 | inactive: 0.0336 |
| GGUUUGACAAGUUCUUUUGTT against Frmpd3 | inactive: 0.374 |
| GGGACAUUAUGCUUAUGACTT against Srsf7 | inactive: -0.513 |
| CCUACGACCUUCUCUACCATT against Prss23 | inactive: -0.181 |
| CGUAAAGUGAUUAUAACACTT against Ciao1 | inactive: 0.83 |
| GCUCAACCUGAAAACGUAUTT against Ptcd1 | inactive: -0.682 |
| GCGGCUACGUUUAUGAAGATT against Hlcs | inactive: -0.78 |
| CCUUAGUAUGUAUGUGGUATT against Map10 | active: -2.65 |
| GCCAAAUGAACUAGCAAUATT against Golm1 | inactive: 0.0585 |
| GCAUAGUGGAACAGUCUAUTT against Dynlt3 | inactive: 0.829 |
| CGAUGGCCCAUAAAUACUUTT against Gemin4 | inactive: -0.774 |
| GGACGAGUUCAAGAGUCUCTT against Elavl3 | inactive: 0.064 |
| GGCAUGAGAAACUCUGACATT against Itlnb | inactive: -1.14 |
| GGGACAAGUUCAUCUGAUATT against Rin1 | active: 2.06 |
| CCUCAGGUUUAGAGUUCGCTT against Krtap12-1 | inactive: 0.329 |
| GCAAAUGAAUCAUGGGUGGTT against Rnf141 | inactive: 0.116 |
| GCCCAAUGACAAGAUGUAUTT against Clcn2 | inactive: -0.935 |
| GCAAUUCAGACAUACAGGGTT against Trappc8 | inactive: 0.0253 |
| GGAUCUCUACAACUACAUATT against Rrm1 | inactive: -0.309 |
| GGAAGCAGACAAUUGGUUUTT against Armcx6 | inactive: 0.771 |

Source: PubChem BioAssay AID1508600 (Functional Genomics Laboratory (NCATS/FGL), 2020)
